Among all 340,000 compounds or so, about 170 (0.05%) were called active. This list was built around the results that the source calls inconclusive (neither active nor inactive); the mix of calls is not that of the screen. Calls follow the shape of the dose curve; as a rule, active = well fitted inhibition curve with a large enough effect in the signal ratio, with a control signal flat (not every such curve was filed as active); inconclusive = small, poorly fitted or top-dose-only effect, or effect the other way, or a change in a side signal; inactive = flat fitted curve, though single readings scatter; the % refers to the signal ratio. Potencies beside an inconclusive call are fits to weak or partial responses and may not hold up.
assay: qHTS Assay to Find Inhibitors of Chronic Active B-Cell Receptor Signaling; conditions: ABC-DLBCL IkBa-CBG/CBR reporter, luminescence ratio (green luciferase fused to IkBa over red control in TMD8 lymphoma cells), 4 h; activity change, negative = inhibition: at 46.1 µM (top of the series) unless noted;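 as to activity change, negative = inhibition: plate controls were basal doxycycline-induced cells for no effect and cells given 10 µM MG132 for full effect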
Procedure, shortened: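 Cell line TMD8 (human ABC DLBCL), stably expressing tet-inducible CBG68-IkBa fusion and CBR; IMDM/0.5% FBS; cpd up to 46 uM; dox induction, 4 h, 37C/5% CO2; dual luminescence; green/red ratio; MG132 control.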
Potency is read from the fitted curve at half-maximal effect.

Row | Structure (SMILES) | activity change, negative = inhibition | Potency
1 | CCOC(=O)CN1C(=O)S/C(=C\c2ccc3c(c2)OCO3)C1=O | inconclusive: 1.68% | –
2 | O=C(NCCc1ccccc1)c1cnc(Cl)c(Cl)c1 | inconclusive: 16.2% | –
3 | CC1Cc2nc(SCC(=O)NCc3ccco3)n(Cc3ccccc3)c(=O)c2S1 (centres undefined) | – | inconclusive: 20.6 µM [rising, partial curve, poor fit]
4 | COCC(=O)Nc1ccc(S(=O)(=O)Nc2ncccn2)cc1 | inconclusive: -11.8% | –
5 | C/C(=C\C(=O)c1ccc(Cl)s1)N(C)C | inactive | –
6 | COc1cc2c(cc1NC(=O)c1cncc(Br)c1)oc1ccccc12 | inconclusive: 1.32% | –
7 | Cc1cc(C)c2nc(N(Cc3cccnc3)C(=O)CCOc3ccccc3)sc2c1 | inactive | –
8 | O=c1[nH]c(-c2cccs2)nc2ccccc12 | inconclusive: 16.5% | –
9 | Cc1nc(-c2ccccn2)sc1C(=O)Nc1ccc(F)cc1F | inconclusive: 13.7% | –
10 | COc1ccccc1C1CCCN1Cc1nc(-c2ccc(C)s2)oc1C (centres undefined) | inactive | –
11 | CCC(=O)N(Cc1ccco1)c1nc(-c2ccc(OC)cc2)cs1 | inconclusive: -2.34% | –
12 | COc1cccc(-c2ncc3ccccc3c2CO)c1 | – | inconclusive: 23.1 µM [falling, partial curve]
13 | COc1ccccc1N(C(=O)CNC(=O)c1ccco1)C(C(=O)NC1CCCC1)c1ccco1 (centres undefined) | inactive | –
14 | Cc1ccccc1OCC(=O)Nc1nnc(-c2ccncc2)s1 | – | inconclusive: 22.4 µM [falling, single point]
15 | O=C1CC(c2cccc(Cl)c2)CC(O)=C1C=NC1CCCC1 (centres undefined) | inconclusive: 2.31% | –
16 | CCC/C(C#CCCN1C(=O)c2ccccc2C1=O)=C1/c2ccccc2C(=O)N1c1ccccc1 | – | inconclusive: 18.4 µM [falling, single point]
17 | COCCN1C(=O)C(=O)/C(=C(/O)c2ccc(OC(C)C)cc2)C1c1cccnc1 (centres undefined) | inconclusive: 5.75% | –
18 | O=c1c2c3nc4ccccc4nc3n(-c3ccc4c(c3)OCCO4)c2ncn1CC1CCCO1 (centres undefined) | inconclusive: 12.6% | –
19 | COc1ccc2c(c1)[nH]c1c(Cl)ncnc12 | inconclusive: 12.2% | –
20 | Cc1onc(-c2ccccc2)c1-c1ccnn1C(=O)NC(C)C | inactive | –
21 | NC(=O)C(=O)N/N=C/c1cccc(C(F)(F)F)c1 | inactive | –
22 | Cc1ccc(-c2noc(CN(C)C(=O)c3ccc(Br)o3)n2)cc1 | – | inconclusive: 6.51 µM [falling, partial curve]
23 | Cc1cc(N2CCN(C(=O)c3ccco3)CC2)c2ccccc2n1 | inconclusive: -1.35% | –
24 | COc1ccc(NC(=O)CN2CCOCC2)cc1S(=O)(=O)N1CCCCC1 | inconclusive: 5.15% | –
25 | O=C(NCc1ccc2c(c1)OCO2)C(=O)Nc1cc2c3c(c1)CC(=O)N3CCC2 | – | inconclusive: 14.6 µM [falling, partial curve, poor fit]
26 | Cc1ccccc1N(C(=O)c1snc(C(N)=O)c1N)C(C(=O)NCc1ccccc1)c1ccc(O)cc1 (centres undefined) | – | inconclusive: 15.8 µM [falling, single point]
27 | CC1(C)NC(=O)N(CCCCOc2ccc3ccccc3c2Cl)C1=O | – | inconclusive: 29.1 µM [falling, single point]

Random excerpt: 5 records from the list.
Row | Structure (SMILES) | activity change, negative = inhibition | Potency
22 | Cc1ccc(-c2noc(CN(C)C(=O)c3ccc(Br)o3)n2)cc1 | – | inconclusive: 6.51 µM [falling, partial curve]
23 | Cc1cc(N2CCN(C(=O)c3ccco3)CC2)c2ccccc2n1 | inconclusive: -1.35% | –
17 | COCCN1C(=O)C(=O)/C(=C(/O)c2ccc(OC(C)C)cc2)C1c1cccnc1 (centres undefined) | inconclusive: 5.75% | –
4 | COCC(=O)Nc1ccc(S(=O)(=O)Nc2ncccn2)cc1 | inconclusive: -11.8% | –
19 | COc1ccc2c(c1)[nH]c1c(Cl)ncnc12 | inconclusive: 12.2% | –

Later entries:

Row | Structure (SMILES) | activity change, negative = inhibition | Potency
28 | CCOC(=O)c1cc(-c2ccccc2)n(Cc2cc(CC)no2)n1 | inconclusive: -22.1% | –
29 | Cc1ccnc(SCc2nc3ccccc3s2)n1 | – | inconclusive: 0.411 µM [rising, full curve, poor fit]
30 | O=C(Nc1nc2ccccc2s1)c1ccc2c(c1)S(=O)(=O)c1ccccc1C2=O | inconclusive: 18.6% | –
31 | CCN(CC(=O)NCc1ccc(F)cc1)C(=O)/C=C/c1ccc(OC)c(S(=O)(=O)NC(C)C)c1 | – | inconclusive: 14.1 µM [falling, partial curve]
32 | NCCCn1c(C(=O)c2ccc(Cl)cc2)c2ccc([N+](=O)[O-])cc2[n+]1[O-] | – | inconclusive: 23.1 µM [falling, partial curve]
33 | COC(=O)c1sc(NC(=O)C2CCCCC2C(=O)O)c(C(=O)OC)c1C (centres undefined) | inactive | –
34 | COc1cc(NC(=O)CN(C)S(=O)(=O)c2ccc3nc(C)sc3c2)cc(OC)c1 | – | inconclusive: 22.4 µM [falling, single point]
35 | COc1cc(OC)cc(C(=O)Nc2ccc3c(c2)COC3=O)c1 | – | inconclusive: 3.66 µM [falling, full curve, poor fit]
36 | Nc1c(Br)cc2oc(-c3ccccc3)nc2c1Br | inconclusive: 6.82% | –
37 | O=C1c2ccccc2C(=O)N1CCOc1ccc(F)cc1 | inconclusive: 0.105% | –
38 | COc1cc(NC(=O)c2cc(C)on2)cc(OC)c1OC | – | inconclusive: 7.31 µM [rising, partial curve, poor fit]
39 | O=C(CC1Sc2ccccc2NC1=O)c1ccc(Br)cc1 (centres undefined) | inconclusive: 5.97% | –
40 | COCCCNC(=O)C[C@H]1C[C@H](C(=O)N2CCOCC2)[C@@]2(CCC3CCCC3)c3[nH]c4ccc(Cl)cc4c3CCN2C1=O | inconclusive: 0.23% | –
41 | Cc1sc2nc(-c3ccc(Br)cc3)oc(=O)c2c1C | inconclusive: -16.9% | –
42 | CC1CCN(CCC(=O)N2CCCc3c2c(=O)oc2ccc(O)cc32)CC1 | – | inconclusive: 12.6 µM [falling, partial curve, poor fit]
43 | CCn1ccc2c(OCC(=O)Nc3ccccc3C)cccc2c1=O | – | inconclusive: 12.6 µM [falling, partial curve]
44 | Cc1c(C(=O)N2CCN(C(=O)c3ccco3)CC2)oc2c(Cl)cccc12 | – | inconclusive: 29.1 µM [falling, single point]
45 | O=C(Nc1cccnc1)c1cccc(S(=O)(=O)N2CCCCC2)c1 | inconclusive: -17.3% | –
46 | O=C(c1cnccn1)N1CCc2ccccc2C1 | inactive | –
47 | CCCOC(=O)c1ccc(NC(=O)c2ccccc2OC)cc1 | – | inconclusive: 7.94 µM [falling, partial curve]
48 | C/C(=C\c1cccc(Cl)c1Cl)C(=O)c1c(C)cc(C)[nH]c1=O | inconclusive: -0.366% | –
49 | CC(C)Cc1cc(C(=O)NCCCN2CCOCC2)no1 | inconclusive: 14.1% | –
50 | CN(C(=S)NC1CCCCC1)C1(c2ccccc2Cl)CCCCC1=O (centres undefined) | inconclusive: 8.48% | –
51 | COc1ccc(C2=CC(c3ccc(F)cc3)n3nnnc3N2)cc1 (centres undefined) | inactive | –
52 | O=C(CBr)N1CCc2ccccc2C(c2ccccc2)C1 (centres undefined) | – | inconclusive: 25.1 µM [falling, single point]
53 | CN(Cc1ccc(Cl)c(Cl)c1)C(=O)c1cccc(S(=O)(=O)N2CCN(Cc3ccccc3)CC2)c1 | inconclusive: -0.49% | –
54 | COc1cc(CN2CCN(C(=O)c3cccc4ccccc34)CC2)cc(OC)c1O | inconclusive: -0.712% | –

Row | Structure (SMILES) | activity change, negative = inhibition | Potency
55 | Nc1nc(N)c2cc(Sc3ccc4ccccc4c3)ccc2n1 | – | inconclusive: 11.2 µM [falling, partial curve, poor fit]
56 | O=C(COc1ccc(/C=N/NC(=O)c2ccccc2O)cc1)Nc1ccccc1 | – | inconclusive: 17.8 µM [falling, partial curve]
57 | OCc1cn(-c2ccccc2)nc1-c1ccc(Br)cc1 | inconclusive: 6.53% | –
58 | COc1cccc(C2=CC(c3cccs3)n3nnnc3N2)c1 (centres undefined) | – | inconclusive: 20.6 µM [falling, single point]
59 | COc1ccc(/C=C/c2cc[n+](C(=O)Cc3ccccc3)cc2)cc1 | – | inconclusive: 35.5 µM [falling, single point]
60 | COc1ccc(Cl)cc1NC(=O)CN(C)C(=O)c1cc(=O)c2ccccc2o1 | inconclusive: -0.131% | –
61 | CCC(=O)c1ccc(N2CCN(C(=O)c3ccc(F)cc3)CC2)c(F)c1 | inactive | –
62 | CCOC(=O)C(=O)Nc1ccc(OCc2ccccc2)cc1 | – | inconclusive: 12.6 µM [falling, partial curve]
63 | N#C/C(=C/c1cn(-c2ccccc2)nc1-c1cccc(OCc2ccc(F)cc2)c1)C(=O)NCCCn1ccnc1 | inactive | –
64 | Cc1nnc(NC(=O)c2ccc3c(c2)NC(=O)CS3)s1 | inactive | –
65 | COc1ccc(CCNC(=O)C2CCCN(S(=O)(=O)c3ccc(F)cc3)C2)cc1 (centres undefined) | inconclusive: 0.342% | –
66 | CCOC(=O)c1cc(-c2ccccc2)sc1NC(=O)C(C)Sc1nnnn1C (centres undefined) | inconclusive: 1.45% | –
67 | Cc1cccc(NC(=O)CS(=O)(=O)c2cn(C)c3ccccc23)c1 | – | inconclusive: 20.6 µM [falling, single point]
68 | Clc1ccc(-c2c(C3=NCCCN3)nnn2-c2ccc(Cl)cc2)cc1 | inconclusive: -9.66% | –
69 | Cc1ccc(N2C(=O)CC(SCC(=O)Nc3ccc(S(N)(=O)=O)cc3)C2=O)cc1 (centres undefined) | inconclusive: 1.5% | –
70 | CCOc1ccc(-n2c(-c3ccco3)nc3c(cnn3-c3ccc(C)cc3)c2=O)cc1 | inconclusive: -0.25% | –
71 | O=C(COCc1cc(-c2ccc3c(c2)OCO3)on1)N1CCN(c2ccccc2)CC1 | inconclusive: -9.05% | –
72 | Cn1cc2ccc([N+](=O)[O-])cc2n1 | inconclusive: -4.67% | –
73 | Cc1ccc(NC(=O)C2CCN(S(C)(=O)=O)CC2)cc1 | inactive | –
74 | Cc1ccc(F)c(NC(=S)Nc2cccc3ccccc23)c1 | inactive | –
75 | Cn1c(NC(=O)c2cccc(Cn3cc(Cl)cn3)c2)nc2ccccc21 | inconclusive: 13% | –
76 | Cc1cc(CC(=O)O)n(C)c1C(=O)c1ccc(Cl)cc1 | inconclusive: 6.75% | –
77 | Cc1ccc(-n2cc(CNCCN3CCOC3=O)c(-c3ccc(F)cc3)n2)cc1 | inactive | –
78 | Cc1cc(N)n2ncc(-c3cccc(Br)c3)c2n1 | inconclusive: -6.84% | –
79 | COc1ccc(C(=O)C2CCCCC2=O)cc1 (centres undefined) | – | inconclusive: 11.2 µM [falling, partial curve]

Source: PubChem BioAssay AID493014 (National Center for Advancing Translational Sciences (NCATS), 2011)
